Source: patent publication US8691811B2, “Quinazolinone linked pyrrolo[2,1-c][1,4]benzodiazepine hybrids as potential anticancer agents and process for the preparation thereof” (Council of Scientific & Industrial Research, priority 2008, dated 2014)
At least one compound was matched to its structure with a doubt left. Some of these results come from one statement about several compounds together.

system: MCF7; test: NCI cytotoxicity (SRB, 48 h), MCF7; format: cell-based, human; details: MCF7, breast

Row | SMILES | GI50
1 | COc1cc2c(cc1OCCCCCOc1ccc(-n3c(C)nc4ccccc4c3=O)cc1)N=C[C@@H]1CCCN1C2=O [5d, 7-methoxy-8-{5-[4-(2-methyl-4-oxo-3,4-dihydro-3-quinazolinyl)phenoxy]pentyloxy-}-(11aS)-1,2,3,11a-tetrahydro-5H-pyrrolo[2,1-c][1,4]benzodiazepine-5-one] | 170 nM

system: eleven human tumour cell lines; test: Tata protocol in vitro cytotoxicity (SRB, 48 h), all cell lines; format: cell-based; details: bound over all eleven cell lines, read-out: GI50 value against eleven cell lines in seven cell panels
Description: The C8-linked quinazolinone-PBD hybrids (5b, 5c, 5k, 5l, 5m) have been tested against eleven human tumour cell lines derived from seven cancer types (lung cancer, colon cancer, cervix, ovarian cancer, oral cancer, prostate cancer and breast cancer) as per Tata protocol. For each compound, dose response curves for individual cell lines have been measured at a minimum of five concentrations at 10 fold dilutions. A protocol of 48 h continuous drug exposure has been used, and a sulforhodamine B (SRB) protein assay was used to estimate cell viability or growth. Compounds 5b, 5c, 5k, 5l, 5m have been evaluated for their in vitro cytotoxicity in eleven cell lines from seven human cancer types of lung (Hop-62, A-549) colon (COLO-205) cervix (Si-Ha), ovary (A-2780), prostate (PC3) breast (MCF7, Zr-75-1), oral (DWD, GURAV, KB). The results are expressed as percent of cell growth determined relative to that of untreated control cells (Table-4).

Row | SMILES | GI50
2 | COc1cc2c(cc1OCCCCCOc1ccc(-n3c(/C=C/c4ccccc4)nc4ccccc4c3=O)cc1)N=C[C@@H]1CCCN1C2=O [5m, 7-methoxy-8-{5-[(4-4-oxo-2-[(E)-2-phenyl-1-ethenyl]-3,4-dihydro-3-quinazolinylphenyl)oxy]pentyloxy}-(11aS)-1,2,3,11a-tetrahydro-5H-pyrrolo[2,1-c][1,4]benzodiazepine-5-one] | < 2500 nM
3 | COc1cc2c(cc1OCCCCOc1ccc(-n3c(/C=C/c4ccccc4)nc4ccccc4c3=O)cc1)N=C[C@@H]1CCCN1C2=O [5l, 7-methoxy-8-{4-[(4-4-oxo-2-[(E)-2-phenyl-1-ethenyl]-3,4-dihydro-3-quinazolinylphenyl)oxy]butoxy}-(11aS)-1,2,3,11a-tetrahydro-5H-pyrrolo[2,1-c][1,4]benzodiazepine-5-one] | < 2500 nM
4 | COc1cc2c(cc1OCCCOc1ccc(-n3c(/C=C/c4ccccc4)nc4ccccc4c3=O)cc1)N=C[C@@H]1CCCN1C2=O [5k, 7-methoxy-8-{3-[(4-4-oxo-2-[(E)-2-phenyl-1-ethenyl]-3,4-dihydro-3-quinazolinylphenyl)oxy]propoxy}-(11aS)-1,2,3,11a-tetrahydro-5H-pyrrolo[2,1-c][1,4]benzodiazepine-5-one] | < 2500 nM
5 | COc1cc2c(cc1OCCCOc1ccc(-n3c(C)nc4ccccc4c3=O)cc1)N=C[C@@H]1CCCN1C2=O [5b, 7-methoxy-8{-3-[4-(2-methyl-4-oxo-3,4-dihydro-3-quinazolinyl)phenoxy]propoxy}-(11aS)-1,2,3,11a-tetrahydro-5H-pyrrolo[2,1-c][1,4]benzodiazepine-5-one] | < 2500 nM
6 | COc1cc2c(cc1OCCCCOc1ccc(-n3c(C)nc4ccccc4c3=O)cc1)N=C[C@@H]1CCCN1C2=O [5c, 7-methoxy-8{-4-[4-(2-methyl-4-oxo-3,4-dihydro-3-quinazolinyl)phenoxy]butoxy-}-(11aS)-1,2,3,11a-tetrahydro-5H-pyrrolo[2,1-c][1,4]benzodiazepine-5-one] | < 2500 nM
